Assay results as given in PubChem BioAssay AID1347075 (National Center for Advancing Translational Sciences (NCATS), 2019).
About 5,500 (1.4%) of roughly 400,000 compounds were called active. Inconclusive results, whose numbers are uncertain, are shown with a selection of clear calls. The call rests on the fitted dose curve; in most records, active means well fitted cell-killing curve with a large enough effect; inconclusive means small, poorly fitted or top-dose-only effect, or effect the other way; inactive means flat fitted curve, though single readings scatter. Potencies beside an inconclusive call are fits to weak or partial responses and may not hold up.

Experiment: qHTS assay for MDR1-selective chemotherapeutics: Primary screen using the parental adenocarcinoma cell KB-3-1; further: nearly all actives have a fitted effect of over 60% in size
Details: KB-3-1 viability, CellTiter-Glo ATP luminescence, 72 h; activity change, negative = cytotoxic: at 46.1 µM (top of the series)
Procedure, shortened: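 Cytotoxicity in the drug-sensitive parental line KB-3-1 was scored as loss of CellTiter-Glo luminescence following 72 h incubation with compound. Values come from curve fitting of normalized concentration-response data.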
On the % scale 0 is the no-effect control and ±100 the full control effect; potency means the concentration at half of the fitted maximal effect.

| SMILES | activity change, negative = cytotoxic | Potency |
| --- | --- | --- |
| CCOc1ccc(S(=O)(=O)NCC(=O)OCc2nnc(-c3ccccc3)o2)cc1 | inactive: 5.14% | – |
| Cc1cc(C)n2nc(C(=O)N/N=C/c3cccc(Cl)c3)nc2n1 | – | inconclusive: 0.259 µM [rising, full curve, poor fit] |
| COc1ccc(OCc2cc(/C=N\NC(=O)c3ccccc3)ccc2OC)cc1 | – | active: 6.51 µM |
| CCOc1ccc(CNC(=O)c2sc3nc(C)cc(C)c3c2-n2cccc2)cc1 | – | inconclusive: 23.1 µM [cytotoxic, single point] |
| CC1CCN(C(=O)CN2C(=O)C(=O)N(C(C)C)C2=O)c2ccccc2S1 (configuration not stated) | inactive: -12.9% | – |
| CN1CCN(CCCN2c3ccccc3Sc3ccc(Cl)cc32)CC1 | – | inconclusive: 29.1 µM [cytotoxic, single point] |
| CCCc1nnc(SCC(=O)N2CCCCC2C)n1CCOC (configuration not stated) | – | inconclusive: 29.1 µM [cytotoxic, single point] |
| COc1ccc(-c2nn(C)c3sc(C(=O)N4CCN(c5cc(Cl)ccc5C)CC4)cc23)cc1OC | inactive: -8.38% | – |
| CC1(C)SC(=S)N(Cc2ccc3c(c2)OCO3)C1N(O)C(=O)NC1CCCCC1 (configuration not stated) | – | inconclusive: 20.6 µM [cytotoxic, single point] |
| O=C(Cc1ccccc1)Nc1ccc2c(c1)C(=O)N(CC1CCCO1)C2=O (configuration not stated) | – | inconclusive: 10.3 µM [rising, partial curve] |
| O=C(N/N=C/c1ccc(F)cc1)c1cccc(NC(=O)c2ccc(F)cc2)c1 | – | inconclusive: 29.1 µM [cytotoxic, single point] |
| O=C1c2ccccc2C(=O)N1c1ccc2ncccc2c1 | – | inconclusive: 20.6 µM [rising, partial curve] |
| O=C(N/N=C\c1c(O)ccc2ccccc12)c1cncc(Br)c1 | – | active: 2.91 µM |
| C[C@@H]1CN([C@@H](C)CO)C(=O)c2cc(Br)cnc2O[C@@H]1CN(C)Cc1ccc(Oc2ccccc2)cc1 | inactive: -19.5% | – |
| O=C(COc1ccc(S(=O)(=O)N2CCCC2)cc1Cl)NCc1cccnc1 | inactive: -6.2% | – |
| Cc1ccc(Cn2c(=O)n(Cc3ccc(Cl)cc3)c(=O)c3cccnc32)cc1 | inactive: -5.27% | – |
| CCOc1ccc(OCC(O)CNC2CCN(Cc3ccccc3)CC2)cc1 (configuration not stated) | – | inconclusive: 25.9 µM [cytotoxic, single point] |
| COc1ccccc1NC(=O)C1CCCN(c2ncnc3c2nc2n3CCCCC2)C1 (configuration not stated) | inactive: -18.2% | – |
| C=CCNS(=O)(=O)c1ccc(OC)c(C)c1 | – | inconclusive: 0.0326 µM [rising, full curve] |
| COc1ccc(-c2sc(Nc3ccccc3)n[n+]2-c2ccccc2)cc1Br | inactive: -23.7% | – |
| O=C(Nc1ccc(C(F)(F)F)cc1)C1CCCN1S(=O)(=O)c1cccc2cccnc12 (configuration not stated) | – | active: 23.1 µM |
| Cc1ccc(COc2ccc(-c3nnco3)cc2)cc1 | inactive: -1.43% | – |
| CCOCCCNCc1ccc(OCc2ccccc2Cl)cc1 | – | inconclusive: 29.1 µM [cytotoxic, single point] |
| COc1ccc(-c2nnc(Nc3ccc(OCC(N)=O)cc3)c3ccccc23)cc1 | inactive: -0.965% | – |

| SMILES | activity change, negative = cytotoxic | Potency |
| --- | --- | --- |
| CSc1ncccc1C(=O)OCC(=O)N1CCN(C(=O)c2ccco2)CC1 | inactive: 2.1% | – |
| COc1ccc(NS(=O)(=O)c2ccc3nc(COc4ccc5ccccc5c4)[nH]c3c2)cc1 | – | inconclusive: 29.1 µM [cytotoxic, single point] |
| Cc1cc(C)n(-c2nnc(C)n2/N=C/c2cc(Br)ccc2OCc2ccccc2)n1 | – | inconclusive: 29.1 µM [cytotoxic, single point] |
| Cc1cc(/C=C(\C#N)C(=O)O)c(C)n1CC1CCCO1 (configuration not stated) | inactive: 0.596% | – |
| CCc1ccc(NC(=O)c2cc3ccccn3n2)cc1 | – | active: 14.6 µM |
| Brc1ccc(C[n+]2ccccc2)cc1 | – | inconclusive: 29.1 µM [cytotoxic, single point] |
| CCc1ccccc1NC(=O)CSC1=C(C#N)C(c2ccc(O)c(OC)c2)C2=C(CCCC2=O)N1 (configuration not stated) | – | inconclusive: 23.1 µM [cytotoxic, partial curve, poor fit] |
| CN1/C(=C\C(=O)c2ccco2)C(C)(C)c2ccccc21 | – | active: 20.6 µM |
| Cc1[nH]c2ccccc2c1C(O)CN1CCC2(CC1)OCCO2 (configuration not stated) | inactive: 7.65% | – |
| Cc1cc(NC(=O)Cc2csc(-c3ccccc3)n2)ccc1Br | – | inconclusive: 29.1 µM [cytotoxic, single point] |
| COc1ccc(C(=O)Nc2cccc(/C=C/c3nc4ccccc4c(=O)[nH]3)c2)cc1 | – | inconclusive: 20.6 µM [cytotoxic, single point] |
| CC(C)(CCc1ccccn1)C(=O)C(CCc1ccccn1)CCc1ccccn1 | inactive: -1.47% | – |
| CC(C)CC(=O)OC1C(N2CCOCC2)c2c(ccc(/C=C/C(=O)N3CCOCC3)c2O)OC1(C)C (configuration not stated) | inactive: 20.3% | – |
| COc1ccc(C(=O)c2[nH]c(N)c(C(=O)NCCc3c[nH]c4ccccc34)c2-c2ccc(C(F)(F)F)cc2)cc1 | – | inconclusive: 29.1 µM [cytotoxic, single point] |
| CC1(C(=O)NS(=O)(=O)c2ccccc2Cl)CCN1C(=O)CCc1ccccc1 (configuration not stated) | inactive: -5.12% | – |
| COC(=O)/C(=C\c1cc(OC)c(OC)c(OC)c1)c1nc2ccccc2[nH]1 | – | active: 14.6 µM |
| N/C(Cc1ccc(Cl)cc1)=N\OC(=O)c1ccc2ccccc2c1 | – | inconclusive: 29.1 µM [cytotoxic, single point] |
| CC(C)Oc1ccc(S(=O)(=O)N2CCOCC2)cc1NC(=O)c1ccc(Cl)c(S(=O)(=O)N2CCOCC2)c1 | inactive: -30.2% | – |
| Clc1ccc(-c2nc3ccncc3[nH]2)cc1 | – | inconclusive: 20.6 µM [cytotoxic, single point] |
| Cc1cccn2c(=O)c(/C=C(\C#N)C(N)=O)c(N3CCN(Cc4ccc5c(c4)OCO5)CC3)nc12 | – | inconclusive: 4.61 µM [cytotoxic, full curve] |
| O=C(NNC(=S)NC(=O)C12CC3CC(CC(C3)C1)C2)c1ccncc1 | – | inconclusive: 16.4 µM [cytotoxic, partial curve, poor fit] |
| COc1ccc(C)cc1NC(=O)C(Sc1nnc(Nc2cc(C)ccc2OC)s1)c1ccccc1 (configuration not stated) | inactive: -1.73% | – |
| COc1ccccc1CNC(=O)CSc1ncc2c(n1)-c1ccccc1N(Cc1ccc(C)cc1)S2(=O)=O | inactive: -3.63% | – |

One compound at a time (already shown).
`COc1ccc(OCc2cc(/C=N\NC(=O)c3ccccc3)ccc2OC)cc1` in the list: Potency: active: 6.51 µM
`COc1ccccc1CNC(=O)CSc1ncc2c(n1)-c1ccccc1N(Cc1ccc(C)cc1)S2(=O)=O` in the list: activity change, negative = cytotoxic: inactive: -3.63%
